This is an account of results in article PMC9054788.

The experiment addresses T1, Midkine (UniProt P21741).
T1 sequence: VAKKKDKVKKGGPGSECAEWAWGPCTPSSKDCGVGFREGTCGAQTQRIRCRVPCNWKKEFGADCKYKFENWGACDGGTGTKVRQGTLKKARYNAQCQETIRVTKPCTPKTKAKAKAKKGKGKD
Description: affinity purification with mass spectrometry; tandem affinity purification of MDK-associated protein complexes from HEK293T cells (legend: HEK293A), MDK as bait.

No constants are given. Whether binding was seen depends on the method and setting. In cells and extracts the contact can be indirect. These calls come from enrichment with a bait or labelling near it, and not all partners need be listed.

Consider MARK (human (endogenous in HEK293T)), for which the binding result was “binds”.

B1: UBE2O (protein, UniProt Q9C0C9 1-1292)
chain: MADPAAPTPAAPAPAQAPAPAPEAVPAPAAAPVPAPAPASDSASGPSSDSGPEAGSQRLLFSHDLVSGRYRGSVHFGLVRLIHGEDSDSEGEEEGRGSSGCSEAGGAGHEEGRASPLRRGYVRVQWYPEGVKQHVKETKLKLEDRSVVPRDVVRHMRSTDSQCGTVIDVNIDCAVKLIGTNCIIYPVNSKDLQHIWPFMYGDYIAYDCWLGKVYDLKNQIILKLSNGARCSMNTEDGAKLYDVCPHVSDSGLFFDDSYGFYPGQVLIGPAKIFSSVQWLSGVKPVLSTKSKFRVVVEEVQVVELKVTWITKSFCPGGTDSVSPPPSVITQENLGRVKRLGCFDHAQRQLGERCLYVFPAKVEPAKIAWECPEKNCAQGEGSMAKKVKRLLKKQVVRIMSCSPDTQCSRDHSMEDPDKKGESKTKSEAESASPEETPDGSASPVEMQDEGAEEPHEAGEQLPPFLLKEGRDDRLHSAEQDADDEAADDTDDTSSVTSSASSTTSSQSGSGTSRKKSIPLSIKNLKRKHKRKKNKITRDFKPGDRVAVEVVTTMTSADVMWQDGSVECNIRSNDLFPVHHLDNNEFCPGDFVVDKRVQSCPDPAVYGVVQSGDHIGRTCMVKWFKLRPSGDDVELIGEEEDVSVYDIADHPDFRFRTTDIVIRIGNTEDGAPHKEDEPSVGQVARVDVSSKVEVVWADNSKTIILPQHLYNIESEIEESDYDSVEGSTSGASSDEWEDDSDSWETDNGLVEDEHPKIEEPPIPPLEQPVAPEDKGVVISEEAATAAVQGAVAMAAPMAGLMEKAGKDGPPKSFRELKEAIKILESLKNMTVEQLLTGSPTSPTVEPEKPTREKKFLDDIKKLQENLKKTLDNVAIVEEEKMEAVPDVERKEDKPEGQSPVKAEWPSETPVLCQQCGGKPGVTFTSAKGEVFSVLEFAPSNHSFKKIEFQPPEAKKFFSTVRKEMALLATSLPEGIMVKTFEDRMDLFSALIKGPTRTPYEDGLYLFDIQLPNIYPAVPPHFCYLSQCSGRLNPNLYDNGKVCVSLLGTWIGKGTERWTSKSSLLQVLISIQGLILVNEPYYNEAGFDSDRGLQEGYENSRCYNEMALIRVVQSMTQLVRRPPEVFEQEIRQHFSTGGWRLVNRIESWLETHALLEKAQALPNGVPKASSSPEPPAVAELSDSGQQEPEDGGPAPGEASQGSDSEGGAQGLASASRDHTDQTSETAPDASVPPSVKPKKRRKSYRSFLPEKSGYPDIGFPLFPLSKGFIKSIRGVLTQFRAALLEAGMPECTEDK
Turning to B1, the binding result was “binds”.
